“And” between values parts separate entries of the source, which are not always exact repeats. Identical values can stand only once. The list shows a part of the results. These are further read-outs of the screen, such as a control signal, another cell line or another target. No call is given for them. Most of these compounds were active or inconclusive in the main read-out, so they are no random draw. The note in brackets gives the kind of curve behind each potency; many fits are weak.

This test is described as follows: qHTS Assay for Modulators of Lamin A Splicing. The settings on record: HeLa LMNA splicing GFP/RFP minigene ratio, 48 h. A digest of the protocol: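 S3 HeLa cells stably expressing lamin A-EGFP splicing minigene plus DsRed2, 600 cells/well, 48 h compound exposure at 37C. Laser-scanning cytometry; analysed as GFP (500-530 nm)/RFP (575-640 nm) total intensity ratio; 0.5% DMSO vehicle.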
For orientation: In qHTS, concentration-response curves come from the screen itself.

Setting [1] is: measured here: GFP splicing reporter channel.
[2] abbreviates: measured here: RFP viability control channel.

For the compound `CCOC(=O)Cn1c(-c2nonc2NC(=O)c2ccccc2F)nc2ccccc21`, the AC50 – broadly, the concentration giving half of the maximal activity seen – is, setting by setting: under setting [1], 0.398 µM [falling, partial curve, poor fit]; under setting [2], 2.24 µM [rising, full curve].

In the case of `C=CCN1C(=O)CN=C1Nc1cc(C)cc(C)c1`, under setting [1], the AC50 is 3.55 µM [rising, partial curve].

Consider `CN1C2=NCCN2C(=O)c2cc(Cl)ccc21`, for which the AC50 under setting [1] is 0.141 µM [rising, full curve, poor fit].

For `CC(C)n1c(=NC(=O)c2ccco2)c(C#N)cc2c(=O)n3ccccc3cc21`, the AC50 under setting [2] is 35.5 µM [falling, single point].

`CCOC(=O)C1CCN(c2ncnc3c2c(-c2ccccc2)cn3-c2ccc(C)c(Cl)c2)CC1`: under setting [1], the half-maximal activity concentration (AC50) was 0.0141 µM [falling, full curve, poor fit].

In the case of `O=c1[nH]c(SCc2cccc(Cl)c2)nc2c1CCCC2`, the AC50 under setting [2] was 14.1 µM [rising, single point].

As to `COCCNc1nc(SCC(=O)N2CCN(c3ccccc3OC)CC2)nc2ccccc12`, the AC50 under setting [1] was 35.5 µM [rising, single point].

Regarding `O=C1c2ccccc2C(Nc2ccc(S(=O)(=O)N3CCCCCC3)cc2)N1Cc1ccco1` (centres undefined), under setting [2], the AC50 is 35.5 µM [rising, single point].

Turning to `CCOC(=O)Cn1c2c(c(=N)c3c1CCC3)CCCC2`, the AC50 under setting [2] is 12.6 µM [rising, single point].

Turning to `O=C1NC(=O)C(c2ccccc2)(c2ccccc2)N1`, the half-maximal activity concentration (AC50) under setting [1] is 35.5 µM [rising, single point]; the AC50 under setting [2] was 22.4 µM [falling, partial curve, poor fit] and 0.794 nM [rising, full curve, poor fit].

`CCOC(=O)c1c(NC(=O)CSc2nc3cc(Cl)ccc3s2)sc(C(C)=O)c1C`: the AC50 is 8.91 µM [rising, partial curve] under setting [1] and 12.6 µM [rising, partial curve] under setting [2].

`O=S(=O)(c1ccccc1Cl)N1CCCC1c1nc(-c2cccc(Cl)c2)no1` (centres undefined): under setting [2], the concentration at half-maximal activity (AC50) is 31.6 µM [rising, single point].

With `COc1ccc(CCNC(=O)C/C(C)=N/NC(=O)C23CC4CC(CC(C4)C2)C3)cc1OC`, the half-maximal activity concentration (AC50) under setting [2] is 35.5 µM [falling, single point].

Regarding `C=CCN1c2ccccc2[C@]23C[C@@H](C(=O)OC)N(S(=O)(=O)c4ccc(C#N)cc4)C2=NC(C(=O)OC)=C(C(=O)OC)[C@H]13`, the AC50 under setting [1] was 1.26 µM [rising, partial curve].

For the compound `Cc1ccccc1C(=O)c1c[nH]c(C(=O)NCC2CCCO2)c1` (centres undefined), the AC50 under setting [1] is 7.94 µM [falling, partial curve].

On to `COc1ccccc1CNC(=O)c1cc2cc(S(=O)(=O)N3CCCCC3)ccc2n1C`, for which the half-maximal activity concentration (AC50) under setting [1] was 3.16 µM [rising, single point].

As for `COC(=O)c1ccc(C2/C(=C(/O)c3ccc(OC)cc3)C(=O)C(=O)N2Cc2ccco2)cc1` (centres undefined), the AC50 under setting [1] is 0.708 µM [rising, partial curve, poor fit].

Consider `O=C(CSc1nc2c([nH]c3ccccc32)c(=O)n1-c1ccccc1)Nc1ccccc1F`, for which the AC50 under setting [2] is 2 µM [falling, partial curve, poor fit].

Consider `Cc1nnc(SCC(=O)N2CCN(S(=O)(=O)c3ccccc3)CC2)n1Cc1ccccc1`, for which the AC50 runs as follows: under setting [1], 20 µM [rising, single point]; under setting [2], 25.1 µM [rising, single point].

As to `COC(=O)[C@@H]1[C@@H](C)OC(=O)N[C@H]1c1ccccc1`, the AC50 under setting [1] is 0.794 µM [falling, partial curve, poor fit].

In the case of `Cc1ccccc1-c1nn(-c2ccc(F)cc2F)cc1CNCCN(C)C`, the AC50 under setting [1] is 35.5 µM [falling, single point].

As for `CC[n+]1c(/C=C2/C=C(C)CC(C)(C)C2)sc2ccc(OC)cc21`, the half-maximal activity concentration (AC50) under setting [1] is 35.5 µM [falling, single point] and the AC50 under setting [2] is 35.5 µM [falling, single point].

For the compound `CCOc1ccc(-c2nnc(NC3=NCCCCC3)o2)cc1`, under setting [2], the AC50 is 35.5 µM [rising, single point].

With `COc1ccc(N2C3=C(CC4=C2CC(C)(C)CC4=O)C(=O)CC(C)(C)C3)cc1`, under setting [1], the AC50 was 35.5 µM [falling, single point].

As for `COc1ccc(Br)cc1CN1CCN(C(=O)c2ccc(OC)c(OC)c2)CC1`, under setting [2], the AC50 was 1.58 µM [falling, partial curve, poor fit].

`CCN(CC)C(=O)c1sc(NC(=O)c2cccs2)c(C#N)c1C`: the AC50 under setting [2] is 1.26 µM [falling, partial curve, poor fit].

On to `COC(=O)CSCC(=O)Nc1nnc(-c2cccc(C)c2)s1`, for which the AC50 under setting [2] was 1.58 µM [falling, partial curve].

On to `COc1cccc(-c2nc(N3CC(C)CC(C)C3)c3ccccc3n2)c1O` (centres undefined), for which the AC50 runs as follows: under setting [1], 12.6 µM [rising, single point]; under setting [2], 14.1 µM [rising, single point].

With `CN1CCN(C2=Cc3ccc(Cl)cc3Sc3ccc(F)cc32)CC1`, the AC50 under setting [2] is 17.8 µM [rising, single point].

As for `N#CCSc1ncnc2ccccc12`, the half-maximal activity concentration (AC50) under setting [1] was 5.01 µM [falling, partial curve].

`CCC1=NN(C(=O)c2ccc(Br)cc2)C(O)(c2ccccc2)C1` (centres undefined): under setting [2], the AC50 is 28.2 µM [rising, single point].

In the case of `Cc1cc(OCCOc2cccc3cccnc23)cc(C)c1Cl`, the AC50 under setting [2] was 35.5 µM [rising, single point].

For `CCOC(=O)C1=C(c2ccccc2)O/C(=C(/C#N)C(F)(F)F)S1`, the AC50 under setting [2] is 35.5 µM [rising, single point].

On to `CN(C)/C=C/C(=O)c1ccc(-n2cccc2)cc1`, for which the concentration at half-maximal activity (AC50) under setting [2] was 0.0158 µM [falling, full curve, poor fit].

For the compound `CCc1ccc(/C=c2\s/c(=C\C(=O)C(C)(C)C)[nH]c2=O)cc1`, the AC50 under setting [2] is 31.6 µM [rising, single point].

Regarding `Cc1ccc(C(=O)CSc2nnc(CNc3nc(-c4ccccc4)cs3)n2C)cc1`, the AC50 under setting [2] was 12.6 µM [rising, single point].

With `COc1ccc2[nH]cc(CCNc3ncncc3-c3cccnc3)c2c1`, the AC50 under setting [1] is 7.94 µM [falling, partial curve].

`CCC(Sc1nc(N)cc(=O)[nH]1)C(=O)Nc1cc(C)on1` (centres undefined): the AC50 under setting [1] is 0.447 µM [rising, full curve, poor fit].

(Values after PubChem BioAssay AID1487 (National Center for Advancing Translational Sciences (NCATS), 2009).)
